# Measured values published in the supplement of paper PMC11732987, “Enantioselective OTUD7B fragment discovery through chemoproteomics screening and high-throughput optimisation” (Communications Chemistry, 2025).
# The chains behind the UniProt entries cited, without tags or fusion partners. Where a name states a change or a piece, a line headed by the entry shows the natural chain unless it says otherwise.
# UniProt P49189: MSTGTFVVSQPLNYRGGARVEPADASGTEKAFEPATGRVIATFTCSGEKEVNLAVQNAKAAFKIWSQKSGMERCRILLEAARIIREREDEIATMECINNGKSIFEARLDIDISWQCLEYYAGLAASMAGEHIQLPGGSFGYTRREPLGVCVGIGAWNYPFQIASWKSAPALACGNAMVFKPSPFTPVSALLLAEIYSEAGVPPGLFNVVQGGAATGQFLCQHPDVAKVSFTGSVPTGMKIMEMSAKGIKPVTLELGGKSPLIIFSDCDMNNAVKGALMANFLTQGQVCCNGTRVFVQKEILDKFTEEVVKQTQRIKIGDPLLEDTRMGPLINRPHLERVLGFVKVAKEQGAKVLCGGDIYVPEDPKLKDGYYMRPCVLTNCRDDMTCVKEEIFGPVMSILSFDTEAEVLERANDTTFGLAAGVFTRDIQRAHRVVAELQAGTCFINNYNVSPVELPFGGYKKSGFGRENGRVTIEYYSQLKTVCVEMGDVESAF
# UniProt Q9Y4W6: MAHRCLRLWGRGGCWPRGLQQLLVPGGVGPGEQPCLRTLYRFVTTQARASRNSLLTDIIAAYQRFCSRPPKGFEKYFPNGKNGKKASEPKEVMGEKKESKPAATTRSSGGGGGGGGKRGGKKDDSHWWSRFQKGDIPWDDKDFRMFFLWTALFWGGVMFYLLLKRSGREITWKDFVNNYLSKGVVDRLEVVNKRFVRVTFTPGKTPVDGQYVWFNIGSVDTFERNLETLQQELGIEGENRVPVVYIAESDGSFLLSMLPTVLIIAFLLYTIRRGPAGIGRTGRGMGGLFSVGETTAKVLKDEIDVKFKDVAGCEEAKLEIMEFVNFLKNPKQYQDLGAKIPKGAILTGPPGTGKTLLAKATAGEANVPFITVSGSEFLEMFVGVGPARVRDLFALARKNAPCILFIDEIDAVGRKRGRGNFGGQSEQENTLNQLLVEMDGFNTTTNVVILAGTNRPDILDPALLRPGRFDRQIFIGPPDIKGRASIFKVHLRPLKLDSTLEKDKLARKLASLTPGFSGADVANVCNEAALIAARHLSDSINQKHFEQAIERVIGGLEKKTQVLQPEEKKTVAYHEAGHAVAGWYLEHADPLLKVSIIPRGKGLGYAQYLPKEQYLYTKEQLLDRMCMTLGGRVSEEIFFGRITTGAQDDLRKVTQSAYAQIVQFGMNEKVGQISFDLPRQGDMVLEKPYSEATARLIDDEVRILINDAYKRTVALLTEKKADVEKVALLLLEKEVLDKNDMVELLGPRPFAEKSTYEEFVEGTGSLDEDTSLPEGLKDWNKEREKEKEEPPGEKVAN
# UniProt Q99996: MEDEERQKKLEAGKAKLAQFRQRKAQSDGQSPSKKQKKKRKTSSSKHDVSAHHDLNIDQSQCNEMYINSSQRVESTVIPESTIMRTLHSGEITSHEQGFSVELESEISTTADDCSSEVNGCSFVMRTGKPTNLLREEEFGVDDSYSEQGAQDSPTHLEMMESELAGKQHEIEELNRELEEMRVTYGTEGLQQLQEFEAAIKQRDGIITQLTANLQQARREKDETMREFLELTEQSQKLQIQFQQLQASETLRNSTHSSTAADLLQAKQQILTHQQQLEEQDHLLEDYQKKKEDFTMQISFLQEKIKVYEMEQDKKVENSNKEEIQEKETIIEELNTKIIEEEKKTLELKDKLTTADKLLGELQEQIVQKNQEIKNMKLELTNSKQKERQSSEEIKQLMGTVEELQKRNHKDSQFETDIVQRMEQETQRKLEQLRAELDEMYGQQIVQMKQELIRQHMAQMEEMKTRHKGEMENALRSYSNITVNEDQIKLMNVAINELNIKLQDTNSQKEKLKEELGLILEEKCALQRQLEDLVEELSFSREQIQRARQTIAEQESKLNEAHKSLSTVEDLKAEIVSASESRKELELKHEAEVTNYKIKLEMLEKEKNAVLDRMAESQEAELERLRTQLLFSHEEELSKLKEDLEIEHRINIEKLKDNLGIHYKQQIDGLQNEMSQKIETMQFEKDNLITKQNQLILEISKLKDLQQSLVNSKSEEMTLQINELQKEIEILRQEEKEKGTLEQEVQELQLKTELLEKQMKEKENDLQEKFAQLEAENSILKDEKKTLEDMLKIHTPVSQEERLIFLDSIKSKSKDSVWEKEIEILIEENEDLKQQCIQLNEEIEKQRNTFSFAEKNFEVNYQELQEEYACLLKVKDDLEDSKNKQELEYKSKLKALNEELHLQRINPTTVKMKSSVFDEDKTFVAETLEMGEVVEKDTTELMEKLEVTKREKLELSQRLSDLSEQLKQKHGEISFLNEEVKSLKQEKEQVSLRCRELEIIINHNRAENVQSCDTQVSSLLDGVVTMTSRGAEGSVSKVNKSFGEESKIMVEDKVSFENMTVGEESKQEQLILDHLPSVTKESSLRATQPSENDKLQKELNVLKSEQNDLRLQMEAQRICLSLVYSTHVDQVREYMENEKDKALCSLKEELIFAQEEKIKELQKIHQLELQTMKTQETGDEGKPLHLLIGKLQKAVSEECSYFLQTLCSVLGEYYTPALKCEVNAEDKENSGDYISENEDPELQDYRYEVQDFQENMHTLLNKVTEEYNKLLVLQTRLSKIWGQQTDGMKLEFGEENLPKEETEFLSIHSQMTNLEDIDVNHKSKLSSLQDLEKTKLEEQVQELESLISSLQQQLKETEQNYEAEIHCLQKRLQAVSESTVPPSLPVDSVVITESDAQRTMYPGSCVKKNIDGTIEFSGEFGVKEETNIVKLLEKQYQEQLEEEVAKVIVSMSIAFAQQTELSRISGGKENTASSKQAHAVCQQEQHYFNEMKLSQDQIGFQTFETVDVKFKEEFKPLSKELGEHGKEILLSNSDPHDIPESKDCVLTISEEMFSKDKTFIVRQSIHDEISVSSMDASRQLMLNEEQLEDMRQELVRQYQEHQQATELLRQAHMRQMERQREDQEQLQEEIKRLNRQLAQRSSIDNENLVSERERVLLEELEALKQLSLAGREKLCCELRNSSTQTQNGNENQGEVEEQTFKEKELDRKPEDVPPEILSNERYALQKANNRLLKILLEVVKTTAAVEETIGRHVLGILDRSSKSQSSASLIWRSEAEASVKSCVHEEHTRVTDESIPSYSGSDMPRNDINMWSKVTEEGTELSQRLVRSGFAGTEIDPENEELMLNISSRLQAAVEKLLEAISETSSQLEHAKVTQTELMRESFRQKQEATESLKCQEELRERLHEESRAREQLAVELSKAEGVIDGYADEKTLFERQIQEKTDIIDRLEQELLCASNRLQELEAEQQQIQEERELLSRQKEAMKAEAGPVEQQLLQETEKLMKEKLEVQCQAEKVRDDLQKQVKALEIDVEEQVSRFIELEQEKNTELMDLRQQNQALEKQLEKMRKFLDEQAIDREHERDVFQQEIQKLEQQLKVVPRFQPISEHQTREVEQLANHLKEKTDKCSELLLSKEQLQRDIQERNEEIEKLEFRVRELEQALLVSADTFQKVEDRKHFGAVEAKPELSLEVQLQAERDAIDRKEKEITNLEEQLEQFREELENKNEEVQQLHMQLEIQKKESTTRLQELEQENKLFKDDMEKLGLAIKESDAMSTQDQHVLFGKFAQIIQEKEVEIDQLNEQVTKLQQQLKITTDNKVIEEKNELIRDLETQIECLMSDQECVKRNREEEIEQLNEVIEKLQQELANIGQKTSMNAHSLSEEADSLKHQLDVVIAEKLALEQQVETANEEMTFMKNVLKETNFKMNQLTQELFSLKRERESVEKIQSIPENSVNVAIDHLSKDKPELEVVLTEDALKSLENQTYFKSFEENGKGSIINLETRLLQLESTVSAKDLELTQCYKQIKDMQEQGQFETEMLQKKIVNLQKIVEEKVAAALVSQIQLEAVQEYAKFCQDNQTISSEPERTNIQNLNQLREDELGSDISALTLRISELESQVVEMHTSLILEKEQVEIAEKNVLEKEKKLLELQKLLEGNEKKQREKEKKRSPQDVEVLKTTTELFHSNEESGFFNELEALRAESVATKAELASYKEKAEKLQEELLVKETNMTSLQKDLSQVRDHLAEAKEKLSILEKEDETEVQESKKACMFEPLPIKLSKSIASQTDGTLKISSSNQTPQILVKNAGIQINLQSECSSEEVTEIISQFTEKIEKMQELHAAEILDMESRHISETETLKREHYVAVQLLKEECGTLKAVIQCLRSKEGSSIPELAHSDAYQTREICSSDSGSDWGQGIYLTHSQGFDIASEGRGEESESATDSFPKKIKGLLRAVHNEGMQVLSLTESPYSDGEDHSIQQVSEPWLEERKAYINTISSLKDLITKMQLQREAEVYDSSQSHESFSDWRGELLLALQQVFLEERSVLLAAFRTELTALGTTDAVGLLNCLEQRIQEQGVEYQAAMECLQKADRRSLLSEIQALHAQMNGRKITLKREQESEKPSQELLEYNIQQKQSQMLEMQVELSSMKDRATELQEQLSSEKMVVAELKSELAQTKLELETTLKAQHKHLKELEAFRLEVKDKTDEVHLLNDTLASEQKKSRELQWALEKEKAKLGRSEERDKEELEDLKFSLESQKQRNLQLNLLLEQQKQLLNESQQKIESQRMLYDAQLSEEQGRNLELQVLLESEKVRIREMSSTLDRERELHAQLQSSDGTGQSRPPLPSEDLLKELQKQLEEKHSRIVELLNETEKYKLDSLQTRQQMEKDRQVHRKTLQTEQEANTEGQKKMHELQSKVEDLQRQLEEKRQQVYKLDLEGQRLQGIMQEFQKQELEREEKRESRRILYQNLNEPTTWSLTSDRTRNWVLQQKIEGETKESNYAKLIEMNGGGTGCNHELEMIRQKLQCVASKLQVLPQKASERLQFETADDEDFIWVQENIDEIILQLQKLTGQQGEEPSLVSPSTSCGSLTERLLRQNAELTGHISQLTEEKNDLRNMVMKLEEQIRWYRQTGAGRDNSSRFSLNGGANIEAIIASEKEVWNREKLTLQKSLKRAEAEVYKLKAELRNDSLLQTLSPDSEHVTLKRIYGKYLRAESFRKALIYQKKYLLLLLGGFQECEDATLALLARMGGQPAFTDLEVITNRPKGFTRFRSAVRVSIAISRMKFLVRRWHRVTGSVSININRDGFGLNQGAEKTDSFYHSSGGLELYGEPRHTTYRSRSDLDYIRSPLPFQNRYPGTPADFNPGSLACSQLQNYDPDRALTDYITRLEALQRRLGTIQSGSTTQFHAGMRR
# UniProt Q9UJX3: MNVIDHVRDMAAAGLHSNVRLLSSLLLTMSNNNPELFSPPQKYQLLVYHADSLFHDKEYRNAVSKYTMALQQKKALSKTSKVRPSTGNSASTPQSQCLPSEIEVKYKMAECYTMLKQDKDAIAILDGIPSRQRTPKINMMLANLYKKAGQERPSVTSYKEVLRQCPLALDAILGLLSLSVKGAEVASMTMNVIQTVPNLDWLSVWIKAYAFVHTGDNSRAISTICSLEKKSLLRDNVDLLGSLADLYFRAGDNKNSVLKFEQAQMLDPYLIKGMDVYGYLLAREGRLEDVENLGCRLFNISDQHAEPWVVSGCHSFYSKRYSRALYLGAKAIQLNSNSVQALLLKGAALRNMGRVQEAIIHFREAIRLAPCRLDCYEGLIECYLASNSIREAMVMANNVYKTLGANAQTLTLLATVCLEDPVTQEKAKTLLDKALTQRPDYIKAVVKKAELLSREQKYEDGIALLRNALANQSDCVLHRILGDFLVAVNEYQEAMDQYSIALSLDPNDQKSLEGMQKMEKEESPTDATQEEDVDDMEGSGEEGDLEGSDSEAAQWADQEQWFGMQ
# UniProt O43572: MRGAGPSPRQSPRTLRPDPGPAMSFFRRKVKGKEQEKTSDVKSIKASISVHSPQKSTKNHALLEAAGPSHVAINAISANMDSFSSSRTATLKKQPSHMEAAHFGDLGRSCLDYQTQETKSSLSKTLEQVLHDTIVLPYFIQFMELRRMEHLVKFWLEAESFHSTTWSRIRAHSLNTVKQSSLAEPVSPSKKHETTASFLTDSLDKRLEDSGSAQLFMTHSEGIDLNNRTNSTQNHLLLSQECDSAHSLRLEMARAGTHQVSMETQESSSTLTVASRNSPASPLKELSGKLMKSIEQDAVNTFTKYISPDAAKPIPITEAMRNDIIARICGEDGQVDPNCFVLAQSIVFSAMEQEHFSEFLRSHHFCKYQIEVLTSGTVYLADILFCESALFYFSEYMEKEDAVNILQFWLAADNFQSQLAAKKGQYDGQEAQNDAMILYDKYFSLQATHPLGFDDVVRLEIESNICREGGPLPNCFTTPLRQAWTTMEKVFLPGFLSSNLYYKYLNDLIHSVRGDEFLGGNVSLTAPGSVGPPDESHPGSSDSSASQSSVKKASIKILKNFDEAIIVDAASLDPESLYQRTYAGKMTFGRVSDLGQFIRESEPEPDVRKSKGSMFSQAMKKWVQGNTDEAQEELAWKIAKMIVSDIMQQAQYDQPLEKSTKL
# This is one part of the list. The data scatter; read single values as rough.
# Compound: ClCC(=O)N[C@H]1CCCc2ccccc12
# Assay: log2 mean competition ratio of IA-DTB cysteine labelling (DMSO/compound) (log2 ratio); higher = stronger cysteine engagement by compound
# Conditions: 50 µM; treatment time: 4 h; cell line lysate: HEK293T
# Experimental: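 IA-DTB competitive cysteine chemoproteomics in HEK293T RIPA lysate. Lysates were treated with compound 29 or 30 at 50 or 200 µM for 4 h, then IA-DTB (500 µM, 1 h), trypsin-digested, NeutrAvidin-enriched and analysed by diaPASEF. Competition ratio = intensity DMSO / intensity compound (n=4 treated, n=64 DMSO); binding: mean log2 CR ≥ 1 and p ≤ 0.05 plus QC filters. Target is the cysteine site.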
row,Target,log2 mean competition ratio
1,ANGEL2 C139 (UniProt Q5VTE6),0.2
2,AKR1A1 C134 (UniProt P14550),-0.419
3,ALS2 C1376 (UniProt Q96Q42),-0.368
4,AKAP13 C1666 (UniProt Q12802),0.266
5,ANKFY1 C675 (UniProt Q9P2R3),-0.69
6,ALDH9A1 C96 (UniProt P49189),-0.754
7,ALDH9A1 C267 (UniProt P49189),-0.197
8,AFG3L2 C626 (UniProt Q9Y4W6),0.0421
9,AKAP1 C64 (UniProt Q92667),-0.319
10,ALDH7A1 C70 (UniProt P49419),0.152
11,ANK2 C3859 (UniProt Q01484),-0.725
12,AKAP9 C2571 (UniProt Q99996),0.582
13,ACBD5 C83 (UniProt Q5T8D3),0.0554
14,AHR C639,0.0214
15,AKT1 C60 (UniProt P31749),0.26
16,ADAT1 C186 (UniProt Q9BUB4),-0.205
17,AKAP9 C3081 (UniProt Q99996),0.427
18,ANAPC7 C475 (UniProt Q9UJX3),0.348
19,AFG3L2 C313 (UniProt Q9Y4W6),-0.197
20,AKAP10 C110 (UniProt O43572),-0.4

# Same assay, conditions: 200 µM; treatment time: 4 h; cell line lysate: HEK293T
row,Target,log2 mean competition ratio
1,ANGEL2 C139 (UniProt Q5VTE6),0.149
2,AKR1A1 C134 (UniProt P14550),-0.309
3,ALS2 C1376 (UniProt Q96Q42),-0.148
4,AKAP13 C1666 (UniProt Q12802),0.148
5,ANKFY1 C675 (UniProt Q9P2R3),-0.26
6,ALDH9A1 C96 (UniProt P49189),-0.72
7,ALDH9A1 C267 (UniProt P49189),-0.179
8,AFG3L2 C626 (UniProt Q9Y4W6),-0.116
9,AKAP1 C64 (UniProt Q92667),0.149
10,ALDH7A1 C70 (UniProt P49419),-0.276
11,ANK2 C3859 (UniProt Q01484),0.26
12,AKAP9 C2571 (UniProt Q99996),0.178
13,ACBD5 C83 (UniProt Q5T8D3),0.418
14,AHR C639,0.22
15,AKT1 C60 (UniProt P31749),0.0843
16,ADAT1 C186 (UniProt Q9BUB4),0.203
17,AKAP9 C3081 (UniProt Q99996),-0.152
18,ANAPC7 C475 (UniProt Q9UJX3),0.806
19,AFG3L2 C313 (UniProt Q9Y4W6),0.0394
20,AKAP10 C110 (UniProt O43572),0.0697
